This is one part of the list.

This experiment addresses T1, OsSMF1 (Oryza sativa, UniProt Q6ZLB0 1-436).
T1 sequence: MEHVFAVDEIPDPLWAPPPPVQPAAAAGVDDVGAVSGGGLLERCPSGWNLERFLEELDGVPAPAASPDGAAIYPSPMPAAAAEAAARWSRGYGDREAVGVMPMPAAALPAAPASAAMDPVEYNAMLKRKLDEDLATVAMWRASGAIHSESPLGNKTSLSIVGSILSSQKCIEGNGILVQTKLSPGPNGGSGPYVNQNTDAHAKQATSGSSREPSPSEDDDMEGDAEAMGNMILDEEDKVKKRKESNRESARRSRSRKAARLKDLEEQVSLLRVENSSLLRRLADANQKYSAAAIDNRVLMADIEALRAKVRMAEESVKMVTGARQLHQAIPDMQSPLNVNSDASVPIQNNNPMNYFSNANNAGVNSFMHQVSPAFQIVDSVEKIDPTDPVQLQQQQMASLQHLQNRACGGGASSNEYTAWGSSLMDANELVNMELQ
In words: protein-binding microarray (RPBM); PBS, 2% BSA, 51.3 ng/ul salmon testes DNA, 50 uM zinc acetate, 200 nM TF, 25 C, 1 h; high values mean tight binding. Conditions: protein: recombinant; tags: N-terminal polyhistidine and DsRed monomer fusion (pET32a); chain copies: 2; label: CyDye5-dUTP incorporated in the synthesized complementary strand; 3' TTTTT single-stranded linker to array surface; dsDNA, one strand shown. The method, boiled down: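 Transcription factors, each fused N-terminally to a polyhistidine tag and DsRed, were expressed in E. coli BL21-CodonPlus and purified on Ni–NTA. A custom Agilent array was made double-stranded by primer extension with Cy5-dUTP and blocked with 2% BSA. It was incubated with 200 nM protein in PBS, 2% BSA, salmon testes DNA and 50 µM zinc acetate at 25 °C for 1 h, then washed. The binding signal is per-feature fluorescence intensity (arbitrary units) read on an Axon 4000B scanner.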
Regarding “GGCGGAGGCGGTGGATCGGGCGCGCCAGGCCATGTCGCAGCGGAGTCACCTAGTGCAG”, the binding signal was 26800 fluorescence intensity (a.u.).

For “ATGTTTTCTAGACTAATATACTATTAATCTATCTTTTATCCGGAGTCACCTAGTGCAG”, the binding signal was 36400 fluorescence intensity (a.u.). On to “TCCCGAGGGCAAAGTCTCCGATTCATTCAGGTCCGACTCGCGGAGTCACCTAGTGCAG”, for which the binding signal was 3210 fluorescence intensity (a.u.). Consider “GATGATGCGTGTGTTGTATTCCATCATCATCAGGTAGCGCCGGAGTCACCTAGTGCAG”, for which the binding signal was 3400 fluorescence intensity (a.u.). The result for “AACCTGATCCGTCCACGGTGTAAAAGCGCGAGCAGCGGTGCGGAGTCACCTAGTGCAG” reads 3680 fluorescence intensity (a.u.); that for “AGAAAGCGTACGCCTTGACAAGTCCCTATCGTCACGCCACCGGAGTCACCTAGTGCAG”, 4080 fluorescence intensity (a.u.).

With “ATAGAGTGTGGGCCACGCCTGCGAAACCTAATGAGGAACTCGGAGTCACCTAGTGCAG”, the binding signal is 36800 fluorescence intensity (a.u.).

Regarding “CATGACTTGGATAAATTAGCGTCATCTTTGTCCCCAATGCCGGAGTCACCTAGTGCAG”, the binding signal was 5280 fluorescence intensity (a.u.). The same measure for “ATCTCGATCTGGACGGTACAGAAACGTGTCACGCCTCTCCCGGAGTCACCTAGTGCAG”: 4710 fluorescence intensity (a.u.); for “ACAACATGCATCTACTATGACACACACAACTTCAGATCAACGGAGTCACCTAGTGCAG”: 4630 fluorescence intensity (a.u.); for “TTTCCGAGACTGTTATTGTGCAACACGTCAAGGATACCATCGGAGTCACCTAGTGCAG”: 4760 fluorescence intensity (a.u.). The result for “AACTATAGCCTAGATTCATAGTATATTAGCTGACATGATACGGAGTCACCTAGTGCAG” reads 3190 fluorescence intensity (a.u.); that for “AGATCGAGATGCCACATCACCATCCGATGTGGAGGCGCTGCGGAGTCACCTAGTGCAG”, 18800 fluorescence intensity (a.u.); that for “CCACTGCTTCGTCATCGTCTACGCCCTCCTCATCGTCCACCGGAGTCACCTAGTGCAG”, 7240 fluorescence intensity (a.u.).

Consider “ACCCTTAATCTTTTAAGTTGTACTCTCTATGGTCATAAATCGGAGTCACCTAGTGCAG”, for which the binding signal is 12800 fluorescence intensity (a.u.). “CGAAGCCCACGCAGATGCTGACGCAGCGCAGGCGTGGCGACGGAGTCACCTAGTGCAG”: the binding signal was 8280 fluorescence intensity (a.u.). “CTTGCTCGGTTTCTTTCTCCCGCGGACACTGAAACCCAACCGGAGTCACCTAGTGCAG”: the binding signal is 3310 fluorescence intensity (a.u.).

With “CCTGTTACCCCAAACGCGTTACCCCAAGCCAATAGACGAACGGAGTCACCTAGTGCAG”, the binding signal was 3220 fluorescence intensity (a.u.). As for “CCTCATAGTCGCAGCCGCCACGCACAGGCAGAAGAGCTTGCGGAGTCACCTAGTGCAG”, the binding signal is 3340 fluorescence intensity (a.u.). Regarding “ACTTTGGTCAATCCTCAGCGTGGCACATGCCTTCAATTGGCGGAGTCACCTAGTGCAG”, the binding signal was 3630 fluorescence intensity (a.u.). On to “GGGGCACGAGCATGGCGGAGGACACATCAGCAGTCGATGGCGGAGTCACCTAGTGCAG”, for which the binding signal was 9360 fluorescence intensity (a.u.). For “ATGGGCCCCGCTACATTGATTGGGCCACGTTGGGTCTTGGCGGAGTCACCTAGTGCAG”, the binding signal is 5830 fluorescence intensity (a.u.). On to “GTCCATCGCCGCGACCCACGCCACCACCGTTACGGACATCCGGAGTCACCTAGTGCAG”, for which the binding signal was 3370 fluorescence intensity (a.u.).

In the case of “AGGAGGAGGAGGGAGAAAGGTGATGTCAGCGGAGGAGGAGCGGAGTCACCTAGTGCAG”, the binding signal is 4140 fluorescence intensity (a.u.). As for “AACAGGCATCCTGATGTTGTAACTTATACTGTTGTTGTTGCGGAGTCACCTAGTGCAG”, the binding signal was 4250 fluorescence intensity (a.u.).

As for “TAGCCAGGAGGGAGGTGGCAAAACAGAATGATGGGAGGGACGGAGTCACCTAGTGCAG”, the binding signal was 3220 fluorescence intensity (a.u.). Turning to “TGCGGCGTGACGCGCTCGTTCAAACCTGCAATAAATGCGGCGGAGTCACCTAGTGCAG”, the binding signal was 4750 fluorescence intensity (a.u.).

“CCTTGTACTGGTGCGTGTCACATCCTAATATAATATTTGTCGGAGTCACCTAGTGCAG”: the binding signal was 3990 fluorescence intensity (a.u.).

As to “AGATAAAATGAGTAATCATCTGTCTAACATGTCACACCAGCGGAGTCACCTAGTGCAG”, the binding signal was 3140 fluorescence intensity (a.u.).

For “GTCAAGCGCCGCCTCGCCGCGTCGGGCCGCCCCGACGACGCGGAGTCACCTAGTGCAG”, the binding signal is 3700 fluorescence intensity (a.u.). Take “ATATGCATGAGTGTGGTGTGTACATATGCATCATCCGTGTCGGAGTCACCTAGTGCAG”: the binding signal is 4580 fluorescence intensity (a.u.). On to “TCGTTTCATCCTGCTGTCACCACGTAGTAACTCGTTTTCCCGGAGTCACCTAGTGCAG”, for which the binding signal was 3390 fluorescence intensity (a.u.). As for “CTCCAACCACCCCTAGACACGTGTCCAGAGAATCTCTAACCGGAGTCACCTAGTGCAG”, the binding signal is 9780 fluorescence intensity (a.u.).

For the sequence “GATTATTGAGTCATATTACTATAAACTTGATTGTTATAATCGGAGTCACCTAGTGCAG”, the binding signal is 3420 fluorescence intensity (a.u.).

Regarding “CTATGGAACGAAATACTGACGTGTCAGGGATGCATGTGAACGGAGTCACCTAGTGCAG”, the binding signal is 6700 fluorescence intensity (a.u.). With “TTGGCTCCCTCGTCGTCTCCGTTACCACGCGCACACTGCCCGGAGTCACCTAGTGCAG”, the binding signal is 3910 fluorescence intensity (a.u.). In the case of “TCAAGCATTGTGGGTCAATGGACCACAAGAAGTAAAACGTCGGAGTCACCTAGTGCAG”, the binding signal is 22000 fluorescence intensity (a.u.). Consider “CGCCATTGTGCGAGGCACGAGTGCACATCGATCTCCTATACGGAGTCACCTAGTGCAG”, for which the binding signal is 3380 fluorescence intensity (a.u.). For the sequence “CTCCTCCCTGCCGCTCGGTGACACTCCCATCTCTTGCGTGCGGAGTCACCTAGTGCAG”, the binding signal was 3590 fluorescence intensity (a.u.). The same measure for “CATTTTCTCCAGGCCCATTAAGCCCATAGGTCATCGTATCCGGAGTCACCTAGTGCAG”: 3390 fluorescence intensity (a.u.); for “GCATGTTTTGAGTTTGAAAGTTTTAAATTTTGAGTTGAAACGGAGTCACCTAGTGCAG”: 50200 fluorescence intensity (a.u.).

Regarding “CCGGACACGGACAGTCAGCTGGAAGGTCATCATGATTCATCGGAGTCACCTAGTGCAG”, the binding signal is 18200 fluorescence intensity (a.u.).

The values above are taken from paper PMC7819943, “Rice protein-binding microarrays: a tool to detect cis-acting elements near promoter regions in rice”.
